# According to the supplement of paper PMC8728848:
# This is one part of the list.
# How the values were obtained:
# Assay in all cases: glycan array binding signal (z-score within array); higher = stronger binding
# Settings in all cases: glycan notation: IUPAC condensed, linker removed
# [1] = target: Fuc(a1-2)Gal
# Outline: (§1)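 From the Consortium for Functional Glycomics database, 3228 arrays were curated, keeping only those whose protein sequence was available. Binding is given as a within-array Z-score averaged across arrays sharing a protein sequence and across linkers. Negative Z-scores can be read as non-binding.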
# [2] = target: Fuc(a1-2)Gal(b1-3)GalNAc
# Outline: as §1
# [3] = target: Fuc(a1-2)Gal(b1-3)GalNAc(a1-3)[Fuc(a1-2)]Gal(b1-4)Glc
# Outline: as §1
# [4] = target: Fuc(a1-2)Gal(b1-3)GalNAc(a1-3)[Fuc(a1-2)]Gal(b1-4)GlcNAc
# Outline: as §1
# [5] = target: Fuc(a1-2)Gal(b1-3)GalNAc(b1-3)Gal
# Outline: as §1
# [6] = target: Fuc(a1-2)Gal(b1-3)GalNAc(b1-3)Gal(a1-4)Gal(b1-4)Glc
# Outline: as §1
# [7] = target: Fuc(a1-2)Gal(b1-3)GalNAc(b1-4)[Neu5Ac(a2-3)]Gal(b1-4)Glc
# Outline: as §1
# [8] = target: Fuc(a1-2)Gal(b1-3)GlcNAc
# Outline: as §1
# [9] = target: Fuc(a1-2)Gal(b1-3)GlcNAc(b1-2)Man(a1-3)[Fuc(a1-2)Gal(b1-3)GlcNAc(b1-2)Man(a1-6)]Man(b1-4)GlcNAc(b1-4)GlcNAc
# Outline: as §1
# [10] = target: Fuc(a1-2)Gal(b1-3)GlcNAc(b1-2)Man(a1-3)[Fuc(a1-2)Gal(b1-3)GlcNAc(b1-2)Man(a1-6)]Man(b1-4)GlcNAc(b1-4)[Fuc(a1-6)]GlcNAc
# Outline: as §1
# [11] = target: Fuc(a1-2)Gal(b1-3)GlcNAc(b1-3)Gal(b1-4)Glc
# Outline: as §1
# [12] = target: Fuc(a1-2)Gal(b1-3)GlcNAc(b1-3)GalNAc
# Outline: as §1
# [13] = target: Fuc(a1-2)Gal(b1-3)GlcNAc(b1-3)[Fuc(a1-3)[Gal(b1-4)]GlcNAc(b1-6)]Gal(b1-4)Glc
# Outline: as §1
# [14] = target: Fuc(a1-2)Gal(b1-3)GlcNAc(b1-3)[Gal(b1-4)GlcNAc(b1-6)]Gal(b1-4)Glc
# Outline: as §1
# [15] = target: Fuc(a1-2)Gal(b1-3)GlcNAc(b1-3)[Neu5Ac(a2-6)Gal(b1-4)GlcNAc(b1-6)]Gal(b1-4)Glc
# Outline: as §1
# [16] = target: Fuc(a1-2)Gal(b1-3)[Fuc(a1-4)]GlcNAc
# Outline: as §1
# [17] = target: Fuc(a1-2)Gal(b1-3)[Fuc(a1-4)]GlcNAc(b1-2)Man(a1-3)[Fuc(a1-2)Gal(b1-3)[Fuc(a1-4)]GlcNAc(b1-2)Man(a1-6)]Man(b1-4)GlcNAc(b1-4)GlcNAc
# Outline: as §1
# [18] = target: Fuc(a1-2)Gal(b1-3)[Fuc(a1-4)]GlcNAc(b1-3)[Fuc(a1-3)[Gal(b1-4)]GlcNAc(b1-6)]Gal(b1-4)Glc
# Outline: as §1
# [19] = target: Fuc(a1-2)Gal(b1-3)[Fuc(a1-4)]GlcNAc(b1-3)[Gal(b1-4)GlcNAc(b1-6)]Gal(b1-4)Glc
# Outline: as §1
# [20] = target: Fuc(a1-2)Gal(b1-4)Glc
# Outline: as §1
# [21] = target: Fuc(a1-2)Gal(b1-4)Glc6S
# Outline: as §1
# [22] = target: Fuc(a1-2)Gal(b1-4)GlcNAc
# Outline: as §1
# [23] = target: Fuc(a1-2)Gal(b1-4)GlcNAc(b1-2)Man(a1-3)[Fuc(a1-2)Gal(b1-4)GlcNAc(b1-2)Man(a1-6)]Man(b1-4)GlcNAc(b1-4)GlcNAc
# Outline: as §1
# [24] = target: Fuc(a1-2)Gal(b1-4)GlcNAc(b1-2)Man(a1-3)[Fuc(a1-2)Gal(b1-4)GlcNAc(b1-2)Man(a1-6)]Man(b1-4)GlcNAc(b1-4)[Fuc(a1-6)]GlcNAc
# Outline: as §1
# [25] = target: Fuc(a1-2)Gal(b1-4)GlcNAc(b1-2)[Fuc(a1-2)Gal(b1-4)GlcNAc(b1-4)]Man(a1-3)[Fuc(a1-2)Gal(b1-4)GlcNAc(b1-2)Man(a1-6)]Man(b1-4)GlcNAc(b1-4)GlcNAc
# Outline: as §1
# [26] = target: Fuc(a1-2)Gal(b1-4)GlcNAc(b1-3)Gal(b1-4)GlcNAc
# Outline: as §1
# [27] = target: Fuc(a1-2)Gal(b1-4)GlcNAc(b1-3)Gal(b1-4)GlcNAc(b1-3)Gal(b1-4)GlcNAc
# Outline: as §1
# [28] = target: Fuc(a1-2)Gal(b1-4)GlcNAc(b1-3)GalNAc
# Outline: as §1
# [29] = target: Fuc(a1-2)Gal(b1-4)GlcNAc(b1-3)[Fuc(a1-2)Gal(b1-4)GlcNAc(b1-6)]GalNAc
# Outline: as §1
# [30] = target: Fuc(a1-2)Gal(b1-4)GlcNAc6S
# Outline: as §1
binder,measurement,setting,value
"DCL-1 (Homo sapiens), Q8IX05 (protein) MLRAALPALLLPLLGLAAAAVADCPSSTWIQFQDSCYIFLQEAIKVESIEDVRNQCTDHGADMISIHNEEENAFILDTLKKQWKGPDDILLGMFYDTDDASFKWFDNSNMTFDKWTDQDDDEDLVDTCAFLHIKTGEWKKGNCEVSSVEGTLCKTAIPYKRKYLSDNHILISALVIASTVILTVLGAIIWFLYKKHSDSRFTTVFSTAPQSPYNEDCVLVVGEENEYPVQFD",glycan array binding signal (z-score),[1],0.287
same,glycan array binding signal (z-score),[2],-0.446
same,glycan array binding signal (z-score),[3],0.327
same,glycan array binding signal (z-score),[4],-0.462
same,glycan array binding signal (z-score),[5],-0.911
same,glycan array binding signal (z-score),[6],-0.425
same,glycan array binding signal (z-score),[7],0.172
same,glycan array binding signal (z-score),[8],-0.064
same,glycan array binding signal (z-score),[9],0.687
same,glycan array binding signal (z-score),[10],-0.216
same,glycan array binding signal (z-score),[11],-0.715
same,glycan array binding signal (z-score),[12],-0.539
same,glycan array binding signal (z-score),[13],0.156
same,glycan array binding signal (z-score),[14],-0.56
same,glycan array binding signal (z-score),[15],1.28
same,glycan array binding signal (z-score),[16],-0.435
same,glycan array binding signal (z-score),[17],-0.488
same,glycan array binding signal (z-score),[18],0.041
same,glycan array binding signal (z-score),[19],-0.421
same,glycan array binding signal (z-score),[20],0.028
same,glycan array binding signal (z-score),[21],-0.559
same,glycan array binding signal (z-score),[22],0.187
same,glycan array binding signal (z-score),[23],-0.355
same,glycan array binding signal (z-score),[24],0.659
same,glycan array binding signal (z-score),[25],-0.471
same,glycan array binding signal (z-score),[26],0.928
same,glycan array binding signal (z-score),[27],0.567
same,glycan array binding signal (z-score),[28],1.21
same,glycan array binding signal (z-score),[29],0.508
same,glycan array binding signal (z-score),[30],-0.457

# Rewritten as tab-separated lines: entries from further up.
binder	measurement	setting	value
DCL-1 (Homo sapiens), Q8IX05 (protein) MLRAALPALLLPLLGLAAAAVADCPSSTWIQFQDSCYIFLQEAIKVESIEDVRNQCTDHGADMISIHNEEENAFILDTLKKQWKGPDDILLGMFYDTDDASFKWFDNSNMTFDKWTDQDDDEDLVDTCAFLHIKTGEWKKGNCEVSSVEGTLCKTAIPYKRKYLSDNHILISALVIASTVILTVLGAIIWFLYKKHSDSRFTTVFSTAPQSPYNEDCVLVVGEENEYPVQFD	glycan array binding signal (z-score)	[2]	-0.446
same	glycan array binding signal (z-score)	[10]	-0.216
